Experimental data taken from patent US5196352A, “New FK-506 cytosolic binding protein” (Merck & Co., Inc., priority 1991, dated 1993).

Tested on: JURKAT cells
Test: Subcellular distribution of [3H]FK-506 in JURKAT cells
Format: cell-based, human
Details: 6 nM, 30 min

[3H]CC([3H])C[C@@H]1/C=C(\C)C[C@H](C)C[C@H](OC)[C@H]2O[C@@](O)(C(=O)C(=O)N3CCCC[C@H]3C(=O)O[C@H](/C(C)=C/[C@@H]3CC[C@@H](O)[C@H](OC)C3)[C@H](C)[C@@H](O)CC1=O)[C@H](C)C[C@@H]2OC (some centres unmarked) [[^3 H]FK-506, [^3 H]-dihydro FK-506]
[^3 H]FK-506 Bound (cpm) (cytosol): 207,879 cpm | % of Total (nuclear pellet): 1.7% | [^3 H]FK-506 Bound (cpm) (nuclear pellet): 3,581 cpm | % of Total (plasma membrane): 0.9% | [^3 H]FK-506 Bound (cpm) (plasma membrane): 1,824 cpm
